No constants are given. Whether binding was seen depends on the method and setting. Some binding calls cover weakened binding; strength is not graded here.
Molecular target: human CENP-E483 followed by two tandem mNeonGreen fluorophores (human) (UniProt Q02224)
Experiment: native gel or EMSA

Chains of the proteins cited; added tags and fusions are not shown. Residues count along the entry.
UniProt Q02224, residues 1-483: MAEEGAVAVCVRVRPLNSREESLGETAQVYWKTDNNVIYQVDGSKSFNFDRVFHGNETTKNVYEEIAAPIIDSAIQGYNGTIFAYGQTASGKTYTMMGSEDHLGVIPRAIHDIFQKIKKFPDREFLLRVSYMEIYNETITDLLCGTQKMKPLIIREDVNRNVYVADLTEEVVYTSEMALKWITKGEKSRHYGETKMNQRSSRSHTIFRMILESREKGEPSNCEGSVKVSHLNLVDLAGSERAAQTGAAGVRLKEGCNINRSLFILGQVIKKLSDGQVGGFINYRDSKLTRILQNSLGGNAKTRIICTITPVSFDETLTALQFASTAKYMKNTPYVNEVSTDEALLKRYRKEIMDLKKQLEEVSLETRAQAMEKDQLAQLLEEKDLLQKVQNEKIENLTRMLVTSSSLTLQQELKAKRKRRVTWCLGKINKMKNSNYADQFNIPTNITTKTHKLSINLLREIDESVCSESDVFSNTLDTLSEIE

binding: binds weakly
Substance: human CENP-E483 followed by two tandem mNeonGreen fluorophores (from UniProt Q02224 1-483) (domain or fragment)

Source: article doi:10.1101/2022.01.21.477187
